We go through 1 substance from article doi:10.1101/2022.07.12.499660.

These are yes or no findings as the source states them, for the method shown. In cells and extracts the contact can be indirect. Binding calls can cover weak binding; strength is not graded here.

This test addresses T1, Spn-E-mKate2 (Spindle-E with mKate2, endogenous knock-in, spn-E^mKate2.KI) (Drosophila (endogenous in ovaries)) (UniProt Q9VF26).
T1 sequence: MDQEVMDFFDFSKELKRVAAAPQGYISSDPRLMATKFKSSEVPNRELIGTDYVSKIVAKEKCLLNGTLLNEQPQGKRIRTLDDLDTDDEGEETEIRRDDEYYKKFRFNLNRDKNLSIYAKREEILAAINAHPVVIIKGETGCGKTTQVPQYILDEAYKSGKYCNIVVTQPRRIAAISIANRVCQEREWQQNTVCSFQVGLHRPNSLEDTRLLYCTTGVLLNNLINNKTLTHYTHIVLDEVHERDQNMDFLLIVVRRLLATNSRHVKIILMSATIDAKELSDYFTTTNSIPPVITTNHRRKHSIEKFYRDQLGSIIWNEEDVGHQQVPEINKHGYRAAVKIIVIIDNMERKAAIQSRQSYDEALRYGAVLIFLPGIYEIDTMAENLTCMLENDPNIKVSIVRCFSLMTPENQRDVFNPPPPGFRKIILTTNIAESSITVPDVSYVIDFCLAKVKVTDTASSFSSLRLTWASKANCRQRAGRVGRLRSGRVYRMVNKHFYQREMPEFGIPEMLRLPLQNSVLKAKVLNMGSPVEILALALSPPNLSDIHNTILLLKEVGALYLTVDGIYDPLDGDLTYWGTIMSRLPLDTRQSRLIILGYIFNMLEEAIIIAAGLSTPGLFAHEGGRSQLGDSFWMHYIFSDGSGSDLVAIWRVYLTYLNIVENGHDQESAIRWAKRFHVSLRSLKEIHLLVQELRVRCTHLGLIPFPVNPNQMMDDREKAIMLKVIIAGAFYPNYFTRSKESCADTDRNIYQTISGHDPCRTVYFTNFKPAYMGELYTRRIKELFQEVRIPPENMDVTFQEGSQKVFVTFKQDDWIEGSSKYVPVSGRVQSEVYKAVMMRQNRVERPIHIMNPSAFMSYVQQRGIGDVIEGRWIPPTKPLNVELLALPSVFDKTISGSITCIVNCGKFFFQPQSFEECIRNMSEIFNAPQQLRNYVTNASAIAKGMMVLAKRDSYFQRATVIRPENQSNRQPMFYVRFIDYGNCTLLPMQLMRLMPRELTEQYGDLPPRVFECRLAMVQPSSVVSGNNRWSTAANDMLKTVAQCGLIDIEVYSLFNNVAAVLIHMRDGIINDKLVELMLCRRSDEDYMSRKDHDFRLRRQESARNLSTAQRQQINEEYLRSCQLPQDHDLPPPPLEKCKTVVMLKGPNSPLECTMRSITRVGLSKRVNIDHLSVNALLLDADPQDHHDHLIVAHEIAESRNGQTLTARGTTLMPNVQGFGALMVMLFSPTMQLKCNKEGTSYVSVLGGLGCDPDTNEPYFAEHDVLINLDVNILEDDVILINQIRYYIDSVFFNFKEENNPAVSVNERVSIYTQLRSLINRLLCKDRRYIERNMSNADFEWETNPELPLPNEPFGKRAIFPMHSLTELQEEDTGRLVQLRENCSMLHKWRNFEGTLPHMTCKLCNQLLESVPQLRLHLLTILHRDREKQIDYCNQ
In words: co-IP.

As to “Tejas (Tej), endogenous (Drosophila (endogenous in ovaries))”, the binding result is on record as “binds”.
